Measured values taken from the supplement of paper PMC10849652.
The list shows a part of the results.

Protein sequences, listed by entry. Tags and fused reporters are not part of them. Lines headed by an entry give the natural chain unless they say otherwise; changes in a name come on top.
UniProt Q9HC16: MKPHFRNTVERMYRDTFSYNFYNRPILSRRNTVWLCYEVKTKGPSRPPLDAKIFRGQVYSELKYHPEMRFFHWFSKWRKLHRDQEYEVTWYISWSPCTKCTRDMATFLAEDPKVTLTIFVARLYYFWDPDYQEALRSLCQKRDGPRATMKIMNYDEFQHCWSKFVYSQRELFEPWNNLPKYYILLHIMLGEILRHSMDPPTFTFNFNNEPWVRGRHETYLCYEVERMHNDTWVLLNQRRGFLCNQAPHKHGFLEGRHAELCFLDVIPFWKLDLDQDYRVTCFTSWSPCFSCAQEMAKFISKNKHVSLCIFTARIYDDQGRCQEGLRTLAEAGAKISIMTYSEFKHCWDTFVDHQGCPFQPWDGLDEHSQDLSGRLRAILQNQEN
UniProt Q8N6H7: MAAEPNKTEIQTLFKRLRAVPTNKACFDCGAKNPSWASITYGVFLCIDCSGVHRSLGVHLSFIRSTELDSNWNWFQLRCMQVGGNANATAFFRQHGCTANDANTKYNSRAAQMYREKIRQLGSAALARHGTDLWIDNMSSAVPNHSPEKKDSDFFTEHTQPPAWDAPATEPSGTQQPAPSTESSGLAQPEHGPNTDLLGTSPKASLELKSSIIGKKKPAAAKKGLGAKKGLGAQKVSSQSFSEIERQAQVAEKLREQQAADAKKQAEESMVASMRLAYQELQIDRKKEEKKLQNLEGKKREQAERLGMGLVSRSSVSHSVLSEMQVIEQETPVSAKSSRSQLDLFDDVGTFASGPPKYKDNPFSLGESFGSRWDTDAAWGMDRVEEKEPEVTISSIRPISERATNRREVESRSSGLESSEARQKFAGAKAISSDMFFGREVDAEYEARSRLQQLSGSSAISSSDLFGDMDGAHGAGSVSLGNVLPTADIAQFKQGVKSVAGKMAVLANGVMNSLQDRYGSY
UniProt Q13795: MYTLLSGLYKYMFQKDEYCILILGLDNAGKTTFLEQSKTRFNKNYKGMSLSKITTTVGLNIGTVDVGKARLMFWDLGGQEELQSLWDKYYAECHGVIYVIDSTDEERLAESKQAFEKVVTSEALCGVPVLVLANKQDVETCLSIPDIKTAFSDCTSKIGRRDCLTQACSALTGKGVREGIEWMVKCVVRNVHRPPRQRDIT
UniProt Q9NXU5: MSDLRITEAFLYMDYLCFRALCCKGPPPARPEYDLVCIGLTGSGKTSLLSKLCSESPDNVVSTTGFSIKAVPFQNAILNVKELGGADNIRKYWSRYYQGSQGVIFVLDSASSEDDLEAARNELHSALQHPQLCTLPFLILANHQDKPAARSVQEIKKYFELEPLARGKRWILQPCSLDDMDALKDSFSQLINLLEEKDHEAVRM
UniProt Q9BZZ5: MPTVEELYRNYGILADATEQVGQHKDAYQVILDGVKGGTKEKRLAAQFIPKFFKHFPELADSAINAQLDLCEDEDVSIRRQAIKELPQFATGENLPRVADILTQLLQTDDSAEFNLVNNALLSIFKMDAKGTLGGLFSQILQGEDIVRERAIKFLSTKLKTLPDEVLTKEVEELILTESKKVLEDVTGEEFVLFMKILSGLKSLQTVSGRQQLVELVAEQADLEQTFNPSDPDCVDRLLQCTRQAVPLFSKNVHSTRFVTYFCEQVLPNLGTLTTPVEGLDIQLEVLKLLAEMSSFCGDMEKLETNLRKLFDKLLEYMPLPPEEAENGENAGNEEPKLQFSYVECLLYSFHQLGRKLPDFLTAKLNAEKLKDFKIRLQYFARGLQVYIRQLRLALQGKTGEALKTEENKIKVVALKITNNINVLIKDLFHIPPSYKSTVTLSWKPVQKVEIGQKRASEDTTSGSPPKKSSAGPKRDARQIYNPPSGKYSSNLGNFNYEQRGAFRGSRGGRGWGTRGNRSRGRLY
UniProt P02654: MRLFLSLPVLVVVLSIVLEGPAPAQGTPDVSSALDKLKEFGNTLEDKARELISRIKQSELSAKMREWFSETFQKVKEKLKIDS
UniProt Q9Y6D6: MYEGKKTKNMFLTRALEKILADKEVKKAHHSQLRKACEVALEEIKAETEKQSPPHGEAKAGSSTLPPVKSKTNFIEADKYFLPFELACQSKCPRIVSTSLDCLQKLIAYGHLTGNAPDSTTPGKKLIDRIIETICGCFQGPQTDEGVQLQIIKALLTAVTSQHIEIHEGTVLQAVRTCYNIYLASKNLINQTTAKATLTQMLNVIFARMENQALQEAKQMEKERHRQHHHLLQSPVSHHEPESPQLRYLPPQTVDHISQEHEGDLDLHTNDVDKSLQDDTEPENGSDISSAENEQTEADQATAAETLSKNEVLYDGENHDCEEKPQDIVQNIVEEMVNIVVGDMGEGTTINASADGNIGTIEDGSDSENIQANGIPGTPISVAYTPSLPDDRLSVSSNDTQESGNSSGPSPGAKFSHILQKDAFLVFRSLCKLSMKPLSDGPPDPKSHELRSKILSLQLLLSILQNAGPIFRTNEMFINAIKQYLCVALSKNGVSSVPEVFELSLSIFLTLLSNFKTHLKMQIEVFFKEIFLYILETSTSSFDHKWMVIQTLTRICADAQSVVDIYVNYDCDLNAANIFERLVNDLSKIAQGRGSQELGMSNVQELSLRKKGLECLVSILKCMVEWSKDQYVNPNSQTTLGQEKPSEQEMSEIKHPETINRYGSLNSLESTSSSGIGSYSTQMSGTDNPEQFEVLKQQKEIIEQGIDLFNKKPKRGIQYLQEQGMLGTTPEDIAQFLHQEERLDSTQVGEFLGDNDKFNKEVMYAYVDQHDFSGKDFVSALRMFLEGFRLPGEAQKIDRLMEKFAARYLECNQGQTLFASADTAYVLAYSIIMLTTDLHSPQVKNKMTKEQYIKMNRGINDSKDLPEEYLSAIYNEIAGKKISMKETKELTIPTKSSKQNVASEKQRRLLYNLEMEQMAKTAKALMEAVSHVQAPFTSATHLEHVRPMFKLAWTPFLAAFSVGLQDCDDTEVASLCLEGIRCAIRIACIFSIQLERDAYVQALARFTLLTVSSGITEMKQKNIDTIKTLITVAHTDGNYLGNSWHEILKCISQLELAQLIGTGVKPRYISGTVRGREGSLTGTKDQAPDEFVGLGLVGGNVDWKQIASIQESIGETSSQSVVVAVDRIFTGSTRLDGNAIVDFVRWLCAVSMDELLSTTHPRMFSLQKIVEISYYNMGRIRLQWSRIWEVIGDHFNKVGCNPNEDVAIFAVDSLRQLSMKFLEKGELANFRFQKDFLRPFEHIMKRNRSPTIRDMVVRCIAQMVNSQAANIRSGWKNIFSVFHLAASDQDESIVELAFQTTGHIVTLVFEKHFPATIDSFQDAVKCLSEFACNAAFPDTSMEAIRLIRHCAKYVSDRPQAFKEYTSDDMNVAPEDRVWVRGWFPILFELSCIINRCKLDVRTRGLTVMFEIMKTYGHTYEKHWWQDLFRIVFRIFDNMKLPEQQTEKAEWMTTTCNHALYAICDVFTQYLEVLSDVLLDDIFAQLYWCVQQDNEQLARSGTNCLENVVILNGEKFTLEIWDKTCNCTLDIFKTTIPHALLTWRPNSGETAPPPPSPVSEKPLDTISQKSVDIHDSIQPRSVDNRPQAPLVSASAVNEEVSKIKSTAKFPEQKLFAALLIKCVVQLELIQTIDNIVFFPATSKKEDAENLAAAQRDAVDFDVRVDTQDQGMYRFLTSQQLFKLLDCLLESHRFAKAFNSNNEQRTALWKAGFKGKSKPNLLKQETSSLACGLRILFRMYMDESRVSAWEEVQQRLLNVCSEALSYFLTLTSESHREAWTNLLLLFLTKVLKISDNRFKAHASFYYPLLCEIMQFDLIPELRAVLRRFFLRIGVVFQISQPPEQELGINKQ
UniProt P15289: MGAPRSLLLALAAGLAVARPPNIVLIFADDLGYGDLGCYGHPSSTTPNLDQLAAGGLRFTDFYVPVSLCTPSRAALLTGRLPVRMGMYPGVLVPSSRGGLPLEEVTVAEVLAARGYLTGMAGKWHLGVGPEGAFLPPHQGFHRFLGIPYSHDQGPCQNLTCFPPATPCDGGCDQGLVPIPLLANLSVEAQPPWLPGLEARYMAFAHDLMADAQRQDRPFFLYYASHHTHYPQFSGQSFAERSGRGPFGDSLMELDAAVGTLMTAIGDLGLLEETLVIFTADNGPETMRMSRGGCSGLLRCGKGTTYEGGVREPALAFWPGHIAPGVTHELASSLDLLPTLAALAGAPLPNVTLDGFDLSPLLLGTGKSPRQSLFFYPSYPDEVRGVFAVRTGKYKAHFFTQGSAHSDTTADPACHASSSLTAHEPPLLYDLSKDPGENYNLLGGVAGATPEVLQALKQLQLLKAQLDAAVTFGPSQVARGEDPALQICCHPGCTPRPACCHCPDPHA
UniProt Q15052: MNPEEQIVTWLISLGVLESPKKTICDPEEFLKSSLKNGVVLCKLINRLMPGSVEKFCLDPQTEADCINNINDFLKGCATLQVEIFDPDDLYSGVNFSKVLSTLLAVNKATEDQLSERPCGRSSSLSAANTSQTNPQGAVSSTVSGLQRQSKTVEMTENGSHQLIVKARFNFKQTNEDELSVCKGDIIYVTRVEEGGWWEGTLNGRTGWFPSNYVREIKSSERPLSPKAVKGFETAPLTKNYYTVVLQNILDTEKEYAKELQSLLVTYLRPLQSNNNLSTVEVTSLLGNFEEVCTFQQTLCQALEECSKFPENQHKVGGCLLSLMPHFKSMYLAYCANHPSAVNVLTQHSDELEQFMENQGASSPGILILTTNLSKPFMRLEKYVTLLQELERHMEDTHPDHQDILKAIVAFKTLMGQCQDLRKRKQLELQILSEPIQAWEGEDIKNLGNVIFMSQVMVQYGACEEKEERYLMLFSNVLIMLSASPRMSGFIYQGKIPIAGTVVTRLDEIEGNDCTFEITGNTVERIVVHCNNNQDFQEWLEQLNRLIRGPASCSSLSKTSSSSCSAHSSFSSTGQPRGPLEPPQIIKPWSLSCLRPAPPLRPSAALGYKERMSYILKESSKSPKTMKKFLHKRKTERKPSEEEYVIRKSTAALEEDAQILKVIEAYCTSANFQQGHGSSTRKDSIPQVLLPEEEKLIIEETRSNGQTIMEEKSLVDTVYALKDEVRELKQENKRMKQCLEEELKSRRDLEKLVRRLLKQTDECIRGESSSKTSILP
UniProt P07741: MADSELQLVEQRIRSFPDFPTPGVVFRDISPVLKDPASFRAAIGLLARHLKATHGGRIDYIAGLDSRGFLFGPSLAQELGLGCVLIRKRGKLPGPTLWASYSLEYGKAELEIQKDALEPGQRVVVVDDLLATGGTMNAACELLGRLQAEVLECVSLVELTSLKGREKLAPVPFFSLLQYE
UniProt Q9HDC9: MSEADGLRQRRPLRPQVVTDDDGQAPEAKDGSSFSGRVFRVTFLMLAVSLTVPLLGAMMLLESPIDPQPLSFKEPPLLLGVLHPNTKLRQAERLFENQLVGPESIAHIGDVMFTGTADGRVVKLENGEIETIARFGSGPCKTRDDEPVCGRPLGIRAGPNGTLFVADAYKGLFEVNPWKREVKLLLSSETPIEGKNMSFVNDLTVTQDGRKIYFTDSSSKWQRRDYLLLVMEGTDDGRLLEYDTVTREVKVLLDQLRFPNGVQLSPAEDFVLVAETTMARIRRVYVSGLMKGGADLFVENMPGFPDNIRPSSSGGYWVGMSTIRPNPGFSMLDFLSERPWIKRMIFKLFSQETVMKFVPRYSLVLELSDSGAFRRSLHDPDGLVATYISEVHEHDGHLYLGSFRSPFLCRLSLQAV

Tests used:
Test in all cases: log2 fold change, soluble protein after heating vs DMSO (PISA); higher = thermal stabilisation; K562 lysate, 10 uM; active = over 0.2 and 3.5 SD of the protein, either way, in both replicates (recomputed)
[1] = compound: CN1CC[C@H](c2c(O)cc(O)c3c(=O)cc(-c4ccccc4Cl)oc23)[C@H](O)C1 [alvocidib]
Procedure, shortened: (§1)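 To prepare the extract, K562 pellets were dounce-homogenised in PBS pH 7.4 with 1 mM MgCl2, giving crude material at 1 mg/mL protein. This was treated with 10 μM compound for 30 min, then heated in aliquots for 3 min over 48°C-58°C before pooling and addition of NP-40 to 0.5% at 4°C. Centrifugation at 21,000xg for 90 min left soluble protein in the supernatant, which TMTpro 16plex LC-MS/MS quantified with equalised channel sums. Results are log-two fold changes in thermal stability compared with solvent controls, from duplicates.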

[2] = compound: CN1CCc2c(c3ccccc3n2Cc2ccc(C(=O)NO)cc2)C1 [Tubastatin A]
Procedure, shortened: as §1

[3] = compound: CNC(=O)C1=CC=CC=C1NC2=NC(=NC=C2Cl)NC3=C(C=C(C=C3)N4CCOCC4)OC
Procedure, shortened: as §1

[4] = compound: CNC(=O)c1ccc(Nc2ncc(C(F)(F)F)c(NCc3nccnc3N(C)S(C)(=O)=O)n2)cc1 [defactinib]
Procedure, shortened: as §1

[5] = compound: CNc1nc(-c2ccc3c(N)n[nH]c3c2)cc(N2C[C@@H](C(=O)NC3CCCCC3)CC[C@H]2C)n1
Procedure, shortened: as §1

[6] = compound: COC(=O)N[C@@H](C)CNc1nccc(-c2cn(C(C)C)nc2-c2cc(Cl)cc(NS(C)(=O)=O)c2F)n1 [encorafenib]
Procedure, shortened: as §1

[7] = compound: COC(=O)[C@H](CCSC)NC(=O)C1=C(C=C(C=C1)NC[C@H](CS)N)C2=CC=CC=C2
Procedure, shortened: as §1

[8] = compound: COc1cc(Nc2ncc3c(n2)-c2ccc(Cl)cc2C(c2c(F)cccc2OC)=NC3)ccc1C(=O)O [alisertib]
Procedure, shortened: as §1

[9] = compound: COc1cc2nc(-c3cc(F)ccc3O)nc(N[C@@H]3CNC[C@H]3C(C)(C)O)c2cc1OC
Procedure, shortened: as §1

[10] = compound: COc1cc2ncnc(Nc3ccc(F)c(Cl)c3)c2cc1OCCCN1CCOCC1 [gefitinib]
Procedure, shortened: as §1

[11] = compound: CS(=O)(=O)CCNCc1ccc(-c2ccc3ncnc(Nc4ccc(OCc5cccc(F)c5)c(Cl)c4)c3c2)o1 [lapatinib]
Procedure, shortened: as §1

[12] = compound: CS(=O)(=O)N1CCN(Cc2cc3nc(-c4cccc5[nH]ncc45)nc(N4CCOCC4)c3s2)CC1 [pictilisib]
Procedure, shortened: as §1

[13] = compound: C[C@@H](Oc1cc(-c2cnn(C3CCNCC3)c2)cnc1N)c1c(Cl)ccc(F)c1Cl [crizotinib]
Procedure, shortened: as §1

[14] = compound: C[C@H](C1=CC=C(C=C1)C(=O)NC2=C3C=CNC3=NC=C2)N
Procedure, shortened: as §1

[15] = compound: C[C@H](Nc1ncnc2nc[nH]c12)c1cc2cccc(Cl)c2c(=O)n1-c1ccccc1 [duvelisib]
Procedure, shortened: as §1

[16] = compound: Cc1cc(Nc2cc(CN3CCOCC3)c3nc(C)c(Cc4ccc(Cl)cc4F)n3n2)n[nH]1 [gandotinib]
Procedure, shortened: as §1

[17] = compound: Cc1cc(Nc2cc(N3CCN(C)CC3)nc(Sc3ccc(NC(=O)C4CC4)cc3)n2)n[nH]1 [tozasertib]
Procedure, shortened: as §1

[18] = compound: Cc1ccc(-n2nc(C(C)(C)C)cc2NC(=O)Nc2ccc(OCCN3CCOCC3)c3ccccc23)cc1 [doramapimod]
Procedure, shortened: as §1

[19] = compound: Cc1ccc(NC(=O)c2ccc(CN3CC[C@H](N(C)C)C3)c(C(F)(F)F)c2)cc1Nc1nccc(-c2cncnc2)n1 [bafetinib]
Procedure, shortened: as §1

[20] = compound: Cc1cccc(CC(=O)N2CCc3c2ccc(-c2cn(C)c4ncnc(N)c24)c3F)n1
Procedure, shortened: as §1

Measured: log2 fold change

ARID1A (UniProt O14497)
inactive: [1] 0.009 | [2] -0.052 | [3] -0.009 | [4] 0 | [5] -0.015 | [6] 0.011 | [7] 0.041 | [8] 0.019 | [9] 0.004 | [10] -0.013 | [11] -0.017 | [12] -0.029 | [13] -0.022 | [14] -0.017 | [15] -0.005 | [16] -0.049 | [17] 0.005 | [18] 0.013 | [19] -0.068 | [20] 0.031

APOBEC3G (UniProt Q9HC16)
inactive: [1] 0.035 | [2] -0.017 | [3] 0.013 | [4] 0.101 | [5] 0.062 | [6] 0.005 | [7] -0.044 | [8] 0.121 | [9] 0.028 | [10] 0.088 | [11] -0.053 | [12] -0.149 | [13] -0.056 | [14] 0.021 | [15] -0.018 | [16] 0.018 | [17] -0.018 | [18] -0.015 | [19] 0.084 | [20] -0.034

ARFGAP2 (UniProt Q8N6H7)
inactive: [1] -0.012 | [2] -0.007 | [3] -0.002 | [4] 0.024 | [5] -0.055 | [6] 0.053 | [7] -0.01 | [8] 0.027 | [9] -0.015 | [10] 0.016 | [11] 0.045 | [12] 0 | [13] 0.028 | [14] -0.023 | [15] -0.026 | [16] 0.114 | [17] 0.024 | [18] 0.09 | [19] -0.046 | [20] -0.006

ARFRP1 (UniProt Q13795)
inactive: [1] -0.037 | [2] 0.05 | [3] 0.064 | [4] -0.031 | [5] 0.122 | [6] 0.013 | [7] 0.061 | [8] 0.07 | [9] 0.028 | [10] 0.006 | [11] 0.025 | [12] -0.023 | [13] 0.031 | [14] 0.036 | [15] -0.033 | [16] 0.002 | [17] 0.182 | [18] 0.023 | [19] 0.036 | [20] 0.009

Taken from the results shown (2 entries):
ARID1A (UniProt O14497)
inactive: [1] 0.009 | [2] -0.052 | [3] -0.009 | [4] 0 | [5] -0.015 | [6] 0.011 | [7] 0.041 | [8] 0.019 | [9] 0.004 | [10] -0.013 | [11] -0.017 | [12] -0.029 | [13] -0.022 | [14] -0.017 | [15] -0.005 | [16] -0.049 | [17] 0.005 | [18] 0.013 | [19] -0.068 | [20] 0.031

APOBEC3G (UniProt Q9HC16)
inactive: [1] 0.035 | [2] -0.017 | [3] 0.013 | [4] 0.101 | [5] 0.062 | [6] 0.005 | [7] -0.044 | [8] 0.121 | [9] 0.028 | [10] 0.088 | [11] -0.053 | [12] -0.149 | [13] -0.056 | [14] 0.021 | [15] -0.018 | [16] 0.018 | [17] -0.018 | [18] -0.015 | [19] 0.084 | [20] -0.034

Additional entries

ARL15 (UniProt Q9NXU5)
active: [14] 0.682
inactive: [1] 0.177 | [2] -0.002 | [3] -0.013 | [4] -0.013 | [5] -0.021 | [6] 0.037 | [7] -0.211 | [8] 0.005 | [9] 0 | [10] -0.057 | [11] -0.001 | [12] 0.097 | [13] 0 | [15] -0.004 | [16] -0.098 | [17] 0.023 | [18] 0.06 | [19] 0.225 | [20] -0.118

API5 (UniProt Q9BZZ5)
inactive: [1] -0.078 | [2] 0.028 | [3] -0.026 | [4] -0.002 | [5] 0.022 | [6] 0.006 | [7] -0.015 | [8] 0.017 | [9] 0.01 | [10] 0.004 | [11] -0.04 | [12] -0.009 | [13] -0.011 | [14] -0.202 | [15] 0.015 | [16] 0.067 | [17] -0.015 | [18] 0.006 | [19] -0.017 | [20] 0.087

APOC1 (UniProt P02654)
inactive: [1] 0.154 | [2] -0.107 | [3] -0.089 | [4] -0.19 | [5] 0.075 | [6] 0 | [7] -0.001 | [8] -0.023 | [9] -0.071 | [10] -0.097 | [11] 0.068 | [12] 0.09 | [13] 0.146 | [14] 0.278 | [15] -0.007 | [16] -0.119 | [17] 0.023 | [18] -0.005 | [19] 0.034 | [20] -0.103

ARPC2 (UniProt O15144)
inactive: [1] 0.013 | [2] 0.031 | [3] 0.004 | [4] -0.014 | [5] -0.031 | [6] -0.013 | [7] -0.017 | [8] 0 | [9] 0.006 | [10] 0.002 | [11] -0.019 | [12] -0.001 | [13] 0.019 | [14] -0.049 | [15] 0.02 | [16] 0.018 | [17] -0.016 | [18] 0.015 | [19] 0.002 | [20] -0.025

ARFGEF1 (UniProt Q9Y6D6)
inactive: [1] 0.001 | [2] -0.014 | [3] 0.013 | [4] 0.008 | [5] -0.012 | [6] 0.015 | [7] 0.044 | [8] -0.01 | [9] 0.001 | [10] -0.005 | [11] -0.022 | [12] -0.027 | [13] -0.05 | [14] -0.002 | [15] 0.01 | [16] -0.104 | [17] 0.002 | [18] -0.015 | [19] -0.03 | [20] 0.039

ARHGEF11 isoform 2 (UniProt O15085)
inactive: [1] 0.019 | [2] 0.093 | [3] -0.075 | [4] -0.106 | [5] -0.023 | [6] 0.007 | [7] 0.059 | [8] -0.018 | [9] 0.012 | [10] 0.077 | [11] -0.005 | [12] -0.018 | [13] -0.006 | [14] -0.011 | [15] 0.03 | [16] -0.172 | [17] -0.039 | [18] -0.002 | [19] 0.008 | [20] 0.038

ARSA (UniProt P15289)
inactive: [1] 0 | [2] -0.174 | [3] -0.05 | [4] 0.035 | [5] 0.058 | [6] 0.016 | [7] 0.135 | [8] -0.148 | [9] 0.039 | [10] 0.102 | [11] 0.016 | [12] -0.018 | [13] -0.002 | [14] -0.04 | [15] 0.017 | [16] 0.055 | [17] 0.01 | [18] 0.067 | [19] -0.013 | [20] -0.041

APOL2 (UniProt J3KQL8)
inactive: [1] -0.023 | [2] -0.074 | [3] -0.038 | [4] -0.286 | [5] -0.202 | [6] 0.051 | [7] -0.176 | [8] -0.102 | [9] -0.017 | [10] 0.057 | [11] 0.059 | [12] -0.013 | [13] 0.035 | [14] -0.016 | [15] -0.001 | [16] -0.3 | [17] -0.128 | [18] -0.134 | [19] 0.146 | [20] 0.022

ARHGEF6 (UniProt Q15052)
inactive: [1] 0.019 | [2] -0.246 | [3] 0.011 | [4] 0.05 | [5] 0.04 | [6] 0.053 | [7] 0.036 | [8] 0.035 | [9] 0.028 | [10] -0.097 | [11] 0.023 | [12] -0.008 | [13] -0.04 | [14] 0.004 | [15] -0.053 | [16] -0.042 | [17] 0.012 | [18] 0.018 | [19] 0.065 | [20] -0.004

APRT (UniProt P07741)
inactive: [1] 0.007 | [2] 0.035 | [3] -0.028 | [4] -0.025 | [5] 0.046 | [6] -0.042 | [7] 0.018 | [8] 0.005 | [9] 0.039 | [10] -0.016 | [11] -0.022 | [12] -0.012 | [13] -0.01 | [14] -0.013 | [15] 0.014 | [16] 0.025 | [17] -0.008 | [18] -0.027 | [19] 0.023 | [20] -0.002

APMAP (UniProt Q9HDC9)
inactive: [1] -0.023 | [2] 0.025 | [3] -0.018 | [4] -0.04 | [5] -0.047 | [6] 0.063 | [7] -0.05 | [8] -0.002 | [9] 0.006 | [10] 0.019 | [11] -0.017 | [12] -0.018 | [13] 0.002 | [14] 0.021 | [15] -0.023 | [16] 0.013 | [17] 0.028 | [18] -0.016 | [19] 0.014 | [20] -0.05

ARPC5 (UniProt O15511)
inactive: [1] 0.001 | [2] 0.052 | [3] 0.02 | [4] -0.024 | [5] 0.027 | [6] -0.029 | [7] -0.021 | [8] -0.005 | [9] -0.001 | [10] 0.018 | [11] -0.043 | [12] -0.001 | [13] 0.033 | [14] -0.036 | [15] 0 | [16] 0.03 | [17] 0.029 | [18] -0.008 | [19] -0.001 | [20] -0.004
